Reference: publication PMC8546558
Residue numbers refer to the chain shown, from its start. No constants are given. Whether binding was seen depends on the method and setting. For some assays here: Binding seen in cells or lysates may run through a third protein. Some entries that bind do so weakly or less than the wild type. Sequences can lack the tags named with a protein.

B1: NisB_(flag) (NisB C-terminally labeled by a Flag tag) (enzyme, UniProt P20103 1-993)
chain: MIKSSFKAQPFLVRNTILCPNDKRSFTEYTQVIETVSKNKVFLEQLLLANPKLYDVMQKYNAGLLKKKRVKKLFESIYKYYKRSYLRSTPFGLFSETSIGVFSKSSQYKLMGKTTKGIRLDTQWLIRLVHKMEVDFSKKLSFTRNNANYKFGDRVFQVYTINSSELEEVNIKYTNVYQIISEFCENDYQKYEDICETVTLCYGDEYRELSEQYLGSLIVNHYLISNLQKDLLSDFSWNTFLTKVEAIDEDKKYIIPLKKVQKFIQEYSEIEIGEGIEKLKEIYQEMSQILENDNYIQIDLISDSEINFDVKQKQQLEHLAEFLGNTTKSVRRTYLDDYKDKFIEKYGVDQEVQITELFDSTFGIGAPYNYNHPRNDFYESEPSTLYYSEEEREKYLSMYVEAVKNHNVINLDDLESHYQKMDLEKKSELQGLELFLNLAKEYEKDIFILGDIVGNNNLGGASGRFSALSPELTSYHRTIVDSVERENENKEITSCEIVFLPENIRHANVMHTSIMRRKVLPFFTSTSHNEVLLTNIYIGIDEKEKFYARDISTQEVLKFYITSMYNKTLFSNELRFLYEISLDDKFGNLPWELIYRDFDYIPRLVFDEIVISPAKWKIWGRDVNSKMTIRELIQSKEIPKEFYIVNGDNKVYLSQKNPLDMEILESAIKKSSKRKDFIELQEYFEDENIINKGEKGRVADVVVPFIRTRALGNEGRAFIREKRVSVERREKLPFNEWLYLKLYISINRQNEFLLSYLPDIQKIVANLGGNLFFLRYTDPKPHIRLRIKCSDLFLAYGSILEILKRSRKNRIMSTFDISIYDQEVERYGGFDTLELSEAIFCADSKIIPNLLTLIKDTNNDWKVDDVSILVNYLYLKCFFQNDNKKILNFLNLVSTKKVKENVNEKIEHYLKLLKVNNLGDQIFYDKNFKELKHAIKNLFLKMIAQDFELQKVYSIIDSIIHVHNNRLIGIERDKEKLIYYTLQRLFVSEEYMK
B2: NisC (tag-free) (enzyme, UniProt Q03202 1-418)
chain: MRIMMNKKNIKRNVEKIIAQWDERTRKNKENFDFGELTLSTGLPGIILMLAELKNKDNSKIYQKKIDNYIEYIVSKLSTYGLLTGSLYSGAAGIALSILHLREDDEKYKNLLDSLNRYIEYFVREKIEGFNLENITPPDYDVIEGLSGILSYLLLINDEQYDDLKILIINFLSNLTKENNGLISLYIKSENQMSQSESEMYPLGCLNMGLAHGLAGVGCILAYAHIKGYSNEASLSALQKIIFIYEKFELERKKQFLWKDGLVADELKKEKVIREASFIRDAWCYGGPGISLLYLYGGLALDNDYFVDKAEKILESAMQRKLGIDSYMICHGYSGLIEICSLFKRLLNTKKFDSYMEEFNVNSEQILEEYGDESGTGFLEGISGCILVLSKFEYSINFTYWRQALLLFDDFLKGGKRK

Key:
[1] = biological target: T1, NisCHis (6×His-tagged NisC) (Lactococcus lactis) (UniProt Q03202); assay: pull-down; NisCHis held on Ni-NTA agarose from the cell lysate of L. lactis NZ9000 coexpressing NisB_(flag), NisB^G_(flag) or NisB^E_(flag), without NisA; SDS-PAGE and Western blotting with anti-Flag
T1 sequence: B2 chain

[2] = biological target: T2, NisTHis (NisT C-terminally labeled by a 6×His tag) (Lactococcus lactis) (UniProt Q03203); assay: pull-down; NisTHis or NisT^H551AHis held on Ni-NTA agarose from DDM-solubilised cytoplasmic membrane of L. lactis NZ9000 coexpressing NisA, NisB_(flag) and NisC; 50 mM Tris-HCl, 300 mM NaCl, 0.1% DDM, pH 7.4, 4°C; elutions blotted with anti-Flag and anti-NisC
T2 sequence: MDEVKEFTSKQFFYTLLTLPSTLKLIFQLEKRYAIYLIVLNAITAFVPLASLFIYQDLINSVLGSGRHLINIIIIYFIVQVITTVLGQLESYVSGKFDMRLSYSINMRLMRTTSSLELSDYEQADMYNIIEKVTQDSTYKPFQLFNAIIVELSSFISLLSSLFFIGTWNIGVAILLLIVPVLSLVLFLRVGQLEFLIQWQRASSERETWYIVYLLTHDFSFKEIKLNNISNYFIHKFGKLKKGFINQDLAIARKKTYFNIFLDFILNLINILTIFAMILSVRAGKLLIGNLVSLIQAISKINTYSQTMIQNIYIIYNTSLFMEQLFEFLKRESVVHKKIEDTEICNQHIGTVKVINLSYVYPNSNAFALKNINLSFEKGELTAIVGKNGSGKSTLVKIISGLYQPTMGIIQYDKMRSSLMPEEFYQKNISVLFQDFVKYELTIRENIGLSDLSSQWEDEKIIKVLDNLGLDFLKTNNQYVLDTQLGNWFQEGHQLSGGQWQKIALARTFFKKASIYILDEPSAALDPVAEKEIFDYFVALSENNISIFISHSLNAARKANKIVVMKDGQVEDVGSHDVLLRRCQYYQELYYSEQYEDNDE

[3] = biological target: T3, NisT^H551AHis (mutation H551A introduced in NisTHis) (Lactococcus lactis) (UniProt Q03203); assay: as above
T3 sequence: T2 sequence with H551A

[4] = biological target: T2, NisTHis (NisT C-terminally labeled by a 6×His tag) (Lactococcus lactis); assay: pull-down; NisTHis held on Ni-NTA agarose from DDM-solubilised membrane; expression combinations: NisB_(flag) and NisC without NisA, NisB_(flag) alone, NisC alone; SDS-PAGE and Western blotting
[5] = biological target: T4, NisB_(flag) (NisB C-terminally labeled by a Flag tag) (Lactococcus lactis) (UniProt P20103); assay: SEC; elution of the Ni-NTA purification of NisA_(GS-His) run on ENrich SEC 650 10/300 at 4°C; fractions analysed by SDS-PAGE and Western blotting; sizes estimated from a calibration curve
T4 sequence: B1 chain

| Binder | binding [1] | binding [2] | binding [3] | binding [4] | binding [5] |
| --- | --- | --- | --- | --- | --- |
| B1 | binds | binds weakly | binds weakly | binds |  |
| B2 |  | binds weakly | binds weakly | binds | binds |
